Data as given in patent US20140256639A1, “PEPTOID NEUTRALIZING AGENTS” (The Regents of the University of California, priority 2013, published 2014).

Assay: Isothermal titration calorimetry (ITC) of peptoid binding to heparin
Details: for N: Table 4, stoichiometry; for N (stoichiometry): Table 3, obtained by fitting the titration curves

Substance: H-[N(Cad)-N(Bu)-N(Spe)]3-NH2 [s9merCad]
- N: 21.9 ± 0.3^

Substance: H-[N(Orn)-N(Bu)-N(Rpe)]4-NH2 [r12mer]
- N (stoichiometry): 16.26

Substance: H-[N(Orn)-N(Bu)-N(Spe)]4-NH2 [s12mer]
- N (stoichiometry): 19.48
- N: 19.5 ± 2.7^

Substance: H-[N(Orn)-N(All)-N(Spe)]3-NH2 [s9merAll]
- N: 19.3 ± 2.4^

Substance: H-[N(Lys)-N(Bu)-N(Spe)]3-NH2 [s9merLys]
- TΔS (Table 4, calculated from binding constant and ΔH): 10,000 ± 54^ cal/mole

Substance: H-[N(Cad)G-N(Bu)-N(Spe)]3-NH2 [s9merCadG]
- ΔH (Table 4): −283.5 ± 27^ cal/mole

Substance: H-[N(Orn)-N(Bu)-N(Spe)]4-NH2 [s12merG]
- N: 19.7 ± 5.7^

Substance: H-[N(Orn)-N(Orn)-N(Spe)]4-NH2 [s9merOrnOrn]
- enthalpy of reaction (sign) (in words): exothermic
